The values below are quoted from earlier work in US8497290B2, “Thiocolchicine derivatives, method of making and methods of use thereof” (priority 2009, dated 2013).

For the series, the system named is rat model. Particulars: metabolites of thiocolchicoside, compared with thiocolchicoside.

Take `COc1c(O)cc2c(c1OC)-c1ccc(SC)c(=O)cc1C(NC(C)=O)CC2` (stereo not shown) [aglycone derivative, 3-demethylthiocolchicine]: the muscle relaxant activity entry is on record as “no muscle relaxant activity”.
